The values below come from PMC12459184, “Design, synthesis, and bioevaluation of pyrazole-containing tubulin polymerisation inhibitors based on conformational constraint strategy” (Journal of Enzyme Inhibition and Medicinal Chemistry, 2025).

SMILES strings stand for the structures.

Holding throughout (format): cell-based
In test [1] the test system is human umbilical vein endothelial cells (HUVEC). As to the kind of experiment: MTT toxicity assay, normal cells HUVEC. The following applies: 72 h, read-out: IC50 (μM) ± SD HUVEC. The procedure:
(§1) The toxicity of compounds 4k and 5a was also tested by using human umbilical vein endothelial cells (HUVEC) and human liver cells (L02).
(§2) Cells grown in logarithmic phase were harvested and seeded onto 96-well cell plates at a density of 4 ∼ 5 × 10^3 cells per well (various from cell type) and were cultured for 24 h. Different concentrations of compounds were added into the wells, and the cells were cultured for another 72 h. The medium was removed, then 20 μL of MTT (5 mg/mL in PBS) was added to each well and the cells were incubated for 4 h. 150 μL of DMSO was added to each well to dissolve the formazan, and the absorbance at 490 nm of each well was measured by a microplate reader. IC50 values were calculated by SPSS software.
On the technique in general: Formazan colour is commonly taken as a measure of viable cells.

Another test deals with PC-3 cells. As to the kind of experiment: MTT antiproliferative assay, PC-3. The conditions noted are these: Homo sapiens, 72 h drug exposure, read-out: IC50 (μM) ± SD PC-3. The procedure:
(§3) Additional cell lines including human colon cancer cell line HCT-116, human non-small cell lung cancer cell line A549, and human prostate cancer cell line PC-3 were brought to test the antiproliferative activities of potent compounds 4k and 5a.
(§4) All cell lines tested in this study were purchased from the American Type Culture Collection (ATCC, Manassas, VA). SGC-7901 (human gastric adenocarcinoma), HCT-116 (human colon carcinoma), and A549 (human pulmonary carcinoma) cells were cultured in RPMI-1640 medium containing 10% foetal serum (FBS) and 1% penicillin-streptomycin solution (100×). MCF-7 (human breast carcinoma) cells were cultured in DMEM medium containing 10% foetal serum (FBS) and 1% penicillin-streptomycin solution (100×). PC-3 (human prostate carcinoma) cells were cultured in Ham’s F-12K medium containing 10% foetal serum (FBS) and 1% penicillin-streptomycin solution (100×). All cells were cultured at 37 °C in a humidified atmosphere containing 5% CO2.
(§5) Cells grown in logarithmic phase were harvested and seeded onto 96-well cell plates at a density of 4 ∼ 5 × 10^3 cells per well (various from cell type) and were cultured for 24 h. […] 150 μL of DMSO was added to each well to dissolve the formazan, and the absorbance at 490 nm of each well was measured by a microplate reader. IC50 values were calculated by SPSS software.

A further test deals with A549 cells. The test can be described thus: MTT antiproliferative assay, A549. The conditions noted are these: Homo sapiens, 72 h drug exposure, read-out: IC50 (μM) ± SD A549. The procedure:
as §3, §4, §5

The next test has as its system SGC-7901 cells. As to the kind of experiment: MTT antiproliferative assay, SGC-7901. The conditions noted are these: Homo sapiens, SGC-7901, 72 h, read-out: IC50 (μM) ± SD SGC-7901. The procedure: (§6) The in vitro antiproliferative activities of all target compounds 4a−k, 5a−h, and 6a−h were assayed by MTT method using human gastric cancer cell line SGC-7901 and human breast cancer cell line MCF-7. Colchicine was used as the positive control.
as §4, §5

Another test deals with HCT-116 cells. The test can be described thus: MTT antiproliferative assay, HCT-116. The conditions noted are these: Homo sapiens, 72 h drug exposure, read-out: IC50 (μM) ± SD HCT-116. The procedure: as §3, §4, §5
The subject of a further test is MCF-7 cells. As to the kind of experiment: MTT antiproliferative assay, MCF-7. The following applies: Homo sapiens, MCF7, 72 h, read-out: IC50 (μM) ± SD MCF-7. The procedure:
as §6, §4, §5

Another test concerns human liver cells (L02). As to the kind of experiment: MTT toxicity assay, normal cells L02. The conditions noted are these: 72 h, read-out: IC50 (μM) ± SD L02. The procedure: as §1, §2

In the case of `COc1cc2c(c(OC)c1OC)-c1ccc(OC)c(=O)cc1[C@@H](NC(C)=O)CC2` [Colchicine, reference compound], the IC50 in test [1] was determined as 0.21 ± 0.078 µM; with PC-3 cells it was 0.015 ± 0.003 µM; with A549 cells it was 0.043 ± 0.015 µM; with SGC-7901 cells it was 0.031 ± 0.006 µM; with HCT-116 cells, 0.039 ± 0.008 µM; in the test with MCF-7 cells it was 0.043 ± 0.016 µM. In addition, in the test on human liver cells (L02), the IC50 was determined as 0.012 ± 0.003 µM.

The term IC50 denotes the point on the concentration scale where inhibition reaches its midpoint.
